Some of the results follow. Repeats are few or missing, and single values can be far off.
Each compound was assayed on M249R (matched melanoma line resistant to BRAF inhibitors) (assay: reduction in cell viability relative to untreated/vehicle; higher = more growth inhibition). Details: 200 nM; 72 h.

| Compound | reduction in cell viability |
| --- | --- |
| Nc1ccccc1NC(=O)c1ccc(CNc2nccc(-c3cccnc3)n2)cc1 [Mocetinostat] | 7.34% |
| O=C1c2c(O)cc(O)cc2OC(c2ccc(O)c(O)c2)C1O (centres undefined) [Taxifolin] | < 0% |
| CS(=O)(=O)Oc1ccc2c(NC(N)=O)c(C(=O)c3ccc(Cl)cc3Cl)oc2c1 [Lirimilast] | 6.93% |
| CC1CNc2c(cccc2S(=O)(=O)N[C@@H](CCCNC(=N)N)C(=O)N2CC[C@@H](C)C[C@@H]2C(=O)O)C1 (some centres undefined) [Argatroban] | < 0% |
| NC(=O)c1ncn([C@@H]2O[C@H](CO)[C@@H](O)[C@H]2O)n1 [Ribavirin] | 6.16% |
| CC(C)C[C@H](NC(=O)[C@@H](O)[C@H](N)Cc1ccccc1)C(=O)O [Ubenimex] | < 0% |
| O=C(NCc1ccccc1)[C@H](Cc1ccccc1)NC(=O)[C@H]1O[C@@H]1C(=O)NCCc1ccc(O)cc1 | < 0% |
| Cc1c(C(=O)NN2CCCCC2)nn(-c2ccc(Cl)cc2Cl)c1-c1ccc(Cl)cc1 [Rimonabant] | < 0% |
| CC1(C)NC(=O)N(c2ccc([N+](=O)[O-])c(C(F)(F)F)c2)C1=O [Nilutamide] | < 0% |
| Cc1csc(-c2nnc(Nc3ccc(Oc4ncccc4-c4ccnc(N)n4)cc3)c3ccccc23)c1 | < 0% |
| c1cc(-c2sc(-c3ccncc3)c(-c3ccncc3)c2-c2ccncc2)ccn1 | 1.23% |
| c1ccc(CNc2nc(NCc3ccccc3)c3ccccc3n2)cc1 | < 0% |
| O=C1NC(=O)/C(=C/c2ccc(-c3ccc(F)cc3O)o2)S1 | < 0% |
| CC(=O)OCC(=O)[C@@]12N=C(C)O[C@@H]1C[C@H]1[C@@H]3CCC4=CC(=O)C=C[C@]4(C)[C@H]3[C@@H](O)C[C@@]12C [Deflazacort] | < 0% |

Given bar-delimited: part of the list above
Compound | reduction in cell viability
c1cc(-c2sc(-c3ccncc3)c(-c3ccncc3)c2-c2ccncc2)ccn1 | 1.23%
c1ccc(CNc2nc(NCc3ccccc3)c3ccccc3n2)cc1 | < 0%

— the supplement of paper PMC9015667
